At least one compound was matched to its structure with a doubt left. Peptide text beside a SMILES is read from it.
biological target: T1, soluble uPAR (Homo sapiens, UniProt Q03405); assay: 125I-ATF competition binding to immobilized soluble uPAR (Activity Assay); details: competition with iodinated human uPA ATF tracer (100-500 pM), 2h at room temperature, PBS/0.1% BSA, triplicate
T1 construct: Purified soluble uPAR was biotinylated
Excerpt: Purified soluble uPAR was biotinylated with NHS-biotin (Molecular Probes) and immobilized at 0.3 Tg/mL in phosphate-buffered saline (PBS)/0.1% BSA on streptavidin-coated Immulon-2 96-well Removawell plates. Human uPA N-terminal fragment (ATF; from M. Shuman, University of California, San Francisco) was iodinated by the Iodo-Gen method (Pierce). Unincorporated ^125 I was separated from labeled protein by Sephadex G-25 chromatography. The specific activity of the labeled protein was between 5×10^5 and 1×10^6 […]. The iodinated tracer (100-500 pM) was incubated with the peptides prepared in Example 1 triplicate for 2h at room temperature in PBS/0.1% BSA in a total volume of 200 TL. The plates were washed with PBS/0.1% BSA 3X, and remaining bound radioactivity was measured on an LKB 1277 Gammamaster. Scatchard analysis was performed by using the LIGAND program (Biosoft, Milltown, N.J.).

Chains of the proteins cited; added tags and fusions are not shown. Residues count along the entry.
UniProt Q03405, 23-305 limits assumed: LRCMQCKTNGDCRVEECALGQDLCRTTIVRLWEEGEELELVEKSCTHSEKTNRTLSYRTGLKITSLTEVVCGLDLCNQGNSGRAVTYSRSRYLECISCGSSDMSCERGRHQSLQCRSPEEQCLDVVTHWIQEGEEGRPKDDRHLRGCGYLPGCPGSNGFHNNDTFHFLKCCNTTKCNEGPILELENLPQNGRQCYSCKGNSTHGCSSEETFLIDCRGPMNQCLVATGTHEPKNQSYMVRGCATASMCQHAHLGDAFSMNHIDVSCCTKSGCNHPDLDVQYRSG

Row | IC50 [nM] | SMILES
1 | 35 ± 9 | CC(C)C[C@H](NC(=O)[C@H](Cc1ccc(O)cc1)NC(=O)[C@H](CS)NC(=O)CNC(=O)[C@H](Cc1ccccc1)NC(=O)[C@H](CS)NC(=O)[C@@H](N)CC(C)C)C(=O)N[C@@H](Cc1c[nH]c2ccccc12)C(=O)N[C@@H](Cc1ccc(O)cc1)C(=O)N[C@H](C(=O)O)[C@@H](C)O [SEQ ID NO: 2, LCFGCYLWYT] (H-LCFGCYLWYT-OH; N-terminus and C-terminus assumed)
2 | 17 ± 1 | CC(C)C[C@H](NC(=O)[C@H](Cc1ccc(O)cc1)NC(=O)[C@H](CS)NC(=O)CNC(=O)[C@H](Cc1ccccc1)NC(=O)[C@H](CC(N)=O)NC(=O)[C@@H](N)CC(C)C)C(=O)N[C@@H](Cc1c[nH]c2ccccc12)C(=O)N[C@@H](CS)C(=O)N[C@H](C(=O)O)[C@@H](C)O [SEQ ID NO: 3, LNFGCYLWCT] (H-LNFGCYLWCT-OH; N-terminus and C-terminus assumed)
3 | 240 ± 37 | CC(C)C[C@H](NC(=O)[C@H](Cc1ccc(O)cc1)NC(=O)[C@H](CS)NC(=O)CNC(=O)[C@H](Cc1ccccc1)NC(=O)[C@H](CS)NC(=O)[C@@H](N)CC(C)C)C(=O)N[C@@H](Cc1c[nH]c2ccccc12)C(=O)N[C@@H](Cc1ccc(O)cc1)C(=O)O [SEQ ID NO: 6, LCFGCYLWY] (H-LCFGCYLWY-OH; N-terminus and C-terminus assumed)

— US6030940A, “Peptide analog inhibitors of urokinase receptor activity” (Chiron Corporation, priority 1997, dated 2000)
